The data set is described as follows: Liver radioactivity estimated from portal vs systemic plasma in portal vein-cannulated monkeys. Format: in vivo.

As for `N=C(N)c1ncn([C@@H]2O[C@H](CO)[C@@H](O)[C@H]2O)n1` [modified Ribavirin, 1-beta-D-ribofuranosyl-1,2,4-triazole-3-carboxamidine], the “Therapeutic ratio relative to Ribavirin” value (from RBC radioactivity and liver concentration) is given as “about twelve times that of Ribavirin”. Further, where the note is “oral”, the “Share of the Ribavirin dosage required to achieve the same liver concentration of Ribavirin” value is recorded as “about 66%”.

The values are drawn from patent US20040014696A1, “Specificity in treatment of diseases” (priority 2003, published 2004).
